Test [1] has as its target T1, Caveolin-1 (Y14F), non-phosphorylatable mutant (dog) (UniProt P33724).
T1 sequence: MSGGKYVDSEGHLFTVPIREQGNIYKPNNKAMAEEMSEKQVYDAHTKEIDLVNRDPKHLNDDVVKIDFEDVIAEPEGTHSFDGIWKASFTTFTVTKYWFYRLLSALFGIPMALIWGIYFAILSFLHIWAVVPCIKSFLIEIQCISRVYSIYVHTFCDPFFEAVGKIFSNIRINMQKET
The test can be described thus: co-IP; polyclonal anti-CAV1 (2.5 ug) on protein A Dynabeads; 2 mg extract of B16F10 cells expressing E-cadherin (pBATEM2); PBS-Tween 0.1%, 2 h, room temperature; western blot.

Protein sequences, listed by entry. Tags and fused reporters are not part of them.
UniProt Q03135: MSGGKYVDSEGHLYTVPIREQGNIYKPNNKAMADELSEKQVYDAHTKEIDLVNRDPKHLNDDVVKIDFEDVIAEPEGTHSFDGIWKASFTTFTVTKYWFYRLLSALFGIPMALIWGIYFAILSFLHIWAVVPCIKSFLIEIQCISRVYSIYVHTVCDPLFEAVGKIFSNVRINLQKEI

The target in test [2] is T1, Caveolin-1 (Y14F), non-phosphorylatable mutant (dog). The test can be described thus: co-IP; polyclonal anti-CAV1 (2.5 ug) on protein A Dynabeads; 2 mg extract of B16F10 cells without E-cadherin; PBS-Tween 0.1%, 2 h, room temperature; western blot. (In general: A western blot detects proteins with antibodies after separation by electrophoresis.)
For test [3], the target named is Caveolin-1 (human, endogenous in Gbd1 cells) (human (endogenous in Gbd1)) (UniProt Q03135). Description: co-IP; human Gbd1 and DLD-1 cancer cells that express E-cadherin, PTPN14 and CAV1; PTPN14 detected by western blot.

These are yes or no findings as the source states them, for the method shown. In cells and extracts the contact can be indirect. Some entries that bind do so weakly or less than the wild type.

B1: Tyrosine-protein phosphatase non-receptor type 14 (PTPN14) (enzyme, UniProt Q62130 1-1189)
chain: MPFGLKLRRTRRYNVLSKNCFVTRIRLLDSNVIECTLSVESTGQECLEAVAQRLELRETHYFGLWFLSKSQQARWVELEKPLKKHLDKFANEPLLFFGVMFYVPNVSRLQQEATRYQYYLQVKKDVLEGRLRCSLEQVIRLAGLAVQADFGDYNQFDSQEFLREYVLFPMDLAMEEAALEELTQKVAQEHKAHSGILPAEAELMYINEVERLDGFGQEIFPVKDSHGNSVHLGIFFMGIFVRNRVGRQAVIYRWNDIGSVTHSKAAILLELIDKEETALFHTDDIENAKYISRLFTTRHKFYKQNKICTEQSNSPPPIRRQPTWSRSSLPRQQPYILPPMHVQCSEHYSETHTSQDSIFPGNEEALYCRSHNSLDLNYLNGTVTNGSVCSVHSVNSLSCSQSFIQASPVSSNLSIPGSDIMRADYIPSHRHSTIIVPSYRPTPDYETVMRQMKRGLMHADSQSRSLRNLNIINTHAYNQPEELVYSQPEMRERHPYTVPYAHQGCYGHKLVSPSDQMNPQNCAMPIKPGASSISHTVSTPELANMQLQGAQHYSTAHMLKNYLFRPPPPYPRPRPATSTPDLASHRHKYVSGSSPDLVTRKVQLSVKTFQEDSSPVVHQSLQEVSEPLTATKHHGGGGGTVNKRHSLEVMNSMVRGMEAMTLKSLNIPMARRNTLREQGPSEETGGHEVHGLPQYHHKKTFSDATMLIHSSESEEEEETLEAAPQVPVLREKVEYSAQLQAALARIPNRPPPEYPGPRKSVSNGALRQDQGTPLPAMARCRVLRHGPSKALSVSRAEQLAVNGASLGPSISEPDLTSVKERVKKEPVKERPVSEMFSLEDSIIEREMMIRNLEKQKMTGPQAQKRPLMLAALNGLSVARVSGREDGHHDATRVPIDERLRALKKKLEDGMVFTEYEQIPNKKANGVFSTATLPENAERSRIREVVPYEENRVELIPTKENNTGYINASHIKVVVGGSEWHYIATQGPLPHTCHDFWQMVWEQGVNVIAMVTAEEEGGRTKSHRYWPKLGSKHSSATYGKFKVTTKFRTDSGCYATTGLKVKHLLSGQERTVWHLQYTDWPHHGCPEDVQGFLSYLEEIQSVRRHTNSVLEGIRTRHPPIVVHCSAGVGRTGVVILSELMIYCLEHNEKVEVPTMLRFLREQRMFMIQTIAQYKFVYQVLVQFLQNSRLI
On to B1, for which the binding result in test [1] and in test [2] was “binds” each time.

B2: PTPN14 (human, endogenous) (enzyme, UniProt Q15678 1-1187)
chain: MPFGLKLRRTRRYNVLSKNCFVTRIRLLDSNVIECTLSVESTGQECLEAVAQRLELRETHYFGLWFLSKSQQARWVELEKPLKKHLDKFANEPLLFFGVMFYVPNVSWLQQEATRYQYYLQVKKDVLEGRLRCTLDQVIRLAGLAVQADFGDYNQFDSQDFLREYVLFPMDLALEEAVLEELTQKVAQEHKAHSGILPAEAELMYINEVERLDGFGQEIFPVKDNHGNCVHLGIFFMGIFVRNRIGRQAVIYRWNDMGNITHNKSTILVELINKEETALFHTDDIENAKYISRLFATRHKFYKQNKICTEQSNSPPPIRRQPTWSRSSLPRQQPYILPPVHVQCGEHYSETHTSQDSIFHGNEEALYCNSHNSLDLNYLNGTVTNGSVCSVHSVNSLNCSQSFIQASPVSSNLSIPGSDIMRADYIPSHRHSAIIVPSYRPTPDYETVMRQMKRGILHTDSQSQSLRNLNIINTHAYNQPEDLVYSQPEMRERHPYTVPYGPQGVYSNKLVSPSDQRNPKNNVVPSKPGASAISHTVSTPELANMQLQGSHNYSTAHMLKNYLFRPPPPYPRPRPATSTPDLASHRHKYVSGSSPDLVTRKVQLSVKTFQEDSSPVVHQSLQEVSEPLTATKHHGTVNKRHSLEVMNSMVRGMEAMTLKSLHLPMARRNTLREQGPPEEGSGSHEVPQLPQYHHKKTFSDATMLIHSSESEEEEEEAPESVPQIPMLREKMEYSAQLQAALARIPNKPPPEYPGPRKSVSNGALRQDQASLPPAMARARVLRHGPAKAISMSRTDPPAVNGASLGPSISEPDLTSVKERVKKEPVKERPVSEMFSLEDSIIEREMMIRNLEKQKMAGLEAQKRPLMLAALNGLSVARVSGREENRVDATRVPMDERFRTLKKKLEEGMVFTEYEQIPKKKANGIFSTAALPENAERSRIREVVPYEENRVELIPTKENNTGYINASHIKVVVGGAEWHYIATQGPLPHTCHDFWQMVWEQGVNVIAMVTAEEEGGRTKSHRYWPKLGSKHSSATYGKFKVTTKFRTDSVCYATTGLKVKHLLSGQERTVWHLQYTDWPDHGCPEDVQGFLSYLEEIQSVRRHTNSMLEGTKNRHPPIVVHCSAGVGRTGVLILSELMIYCLEHNEKVEVPMMLRLLREQRMFMIQTIAQYKFVYQVLIQFLQNSRLI
Regarding B2, in test [3], the binding result was “binds”.

Source of the values: publication PMC7190567.
